Library screen at single concentrations

Amino acid sequences for entries named in this document (tags omitted). Residues count along the entry.
UniProt I6X8D2, whole entry: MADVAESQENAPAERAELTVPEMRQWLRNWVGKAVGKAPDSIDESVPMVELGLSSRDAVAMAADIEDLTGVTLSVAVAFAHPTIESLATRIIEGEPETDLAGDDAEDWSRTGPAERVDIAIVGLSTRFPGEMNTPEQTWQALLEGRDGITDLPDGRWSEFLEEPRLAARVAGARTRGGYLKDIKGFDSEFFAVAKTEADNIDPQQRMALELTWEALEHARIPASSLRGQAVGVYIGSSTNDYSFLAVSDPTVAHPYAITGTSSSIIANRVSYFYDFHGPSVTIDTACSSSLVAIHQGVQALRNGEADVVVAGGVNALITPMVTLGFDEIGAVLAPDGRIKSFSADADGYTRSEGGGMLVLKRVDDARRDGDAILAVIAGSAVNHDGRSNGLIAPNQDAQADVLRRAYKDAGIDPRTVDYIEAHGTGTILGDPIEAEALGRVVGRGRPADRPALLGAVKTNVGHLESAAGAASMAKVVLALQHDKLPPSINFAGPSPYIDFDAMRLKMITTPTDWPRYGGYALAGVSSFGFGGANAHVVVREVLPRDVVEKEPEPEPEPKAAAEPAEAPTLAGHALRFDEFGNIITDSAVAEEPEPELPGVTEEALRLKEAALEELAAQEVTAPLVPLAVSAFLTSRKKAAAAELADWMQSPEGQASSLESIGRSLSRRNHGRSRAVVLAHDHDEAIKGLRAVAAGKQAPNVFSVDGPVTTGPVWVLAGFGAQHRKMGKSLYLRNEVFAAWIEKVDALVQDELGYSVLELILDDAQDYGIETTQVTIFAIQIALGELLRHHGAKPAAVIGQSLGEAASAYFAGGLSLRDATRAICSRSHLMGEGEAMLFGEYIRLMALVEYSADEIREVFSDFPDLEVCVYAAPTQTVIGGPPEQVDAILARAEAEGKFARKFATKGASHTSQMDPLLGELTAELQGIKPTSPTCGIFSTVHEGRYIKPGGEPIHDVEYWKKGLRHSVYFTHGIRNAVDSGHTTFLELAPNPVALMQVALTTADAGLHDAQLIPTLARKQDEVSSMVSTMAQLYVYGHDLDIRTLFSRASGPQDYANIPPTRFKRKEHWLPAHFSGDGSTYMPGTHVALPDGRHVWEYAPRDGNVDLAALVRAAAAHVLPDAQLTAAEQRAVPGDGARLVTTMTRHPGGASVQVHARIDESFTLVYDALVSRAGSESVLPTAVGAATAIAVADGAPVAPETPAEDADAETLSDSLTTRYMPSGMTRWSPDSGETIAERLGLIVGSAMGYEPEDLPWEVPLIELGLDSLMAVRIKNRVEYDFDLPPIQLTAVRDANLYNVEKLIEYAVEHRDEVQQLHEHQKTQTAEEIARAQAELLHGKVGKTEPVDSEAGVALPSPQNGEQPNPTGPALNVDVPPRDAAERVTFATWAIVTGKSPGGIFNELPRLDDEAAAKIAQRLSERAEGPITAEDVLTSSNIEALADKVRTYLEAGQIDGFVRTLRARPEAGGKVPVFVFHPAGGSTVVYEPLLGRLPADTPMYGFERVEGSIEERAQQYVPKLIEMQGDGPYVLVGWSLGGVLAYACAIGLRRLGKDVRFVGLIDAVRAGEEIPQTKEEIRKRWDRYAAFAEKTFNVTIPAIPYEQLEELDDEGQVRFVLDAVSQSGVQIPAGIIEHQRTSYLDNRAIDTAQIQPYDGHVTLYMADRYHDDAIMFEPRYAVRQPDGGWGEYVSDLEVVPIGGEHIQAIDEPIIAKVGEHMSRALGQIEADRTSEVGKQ
UniProt P9WNZ1, whole entry: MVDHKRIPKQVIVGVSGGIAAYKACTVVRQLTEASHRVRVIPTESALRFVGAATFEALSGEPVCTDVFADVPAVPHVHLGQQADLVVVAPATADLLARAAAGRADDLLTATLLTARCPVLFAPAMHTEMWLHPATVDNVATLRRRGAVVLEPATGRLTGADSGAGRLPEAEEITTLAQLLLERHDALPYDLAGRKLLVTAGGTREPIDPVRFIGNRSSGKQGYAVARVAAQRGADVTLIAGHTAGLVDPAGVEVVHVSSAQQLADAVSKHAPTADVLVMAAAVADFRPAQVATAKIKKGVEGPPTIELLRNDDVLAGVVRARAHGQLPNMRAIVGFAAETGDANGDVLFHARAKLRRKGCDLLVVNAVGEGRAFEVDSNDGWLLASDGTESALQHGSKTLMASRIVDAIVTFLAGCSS
UniProt P9WFT3, whole entry: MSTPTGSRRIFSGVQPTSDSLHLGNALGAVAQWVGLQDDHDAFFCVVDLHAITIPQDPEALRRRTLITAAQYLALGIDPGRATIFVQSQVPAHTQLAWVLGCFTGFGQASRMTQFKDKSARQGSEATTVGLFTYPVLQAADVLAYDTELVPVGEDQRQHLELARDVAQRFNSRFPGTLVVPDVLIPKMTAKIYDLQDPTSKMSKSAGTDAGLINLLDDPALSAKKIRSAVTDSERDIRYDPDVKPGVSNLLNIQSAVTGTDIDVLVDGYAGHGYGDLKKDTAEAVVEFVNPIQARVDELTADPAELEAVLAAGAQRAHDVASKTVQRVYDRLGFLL
UniProt A4I591, 1-473: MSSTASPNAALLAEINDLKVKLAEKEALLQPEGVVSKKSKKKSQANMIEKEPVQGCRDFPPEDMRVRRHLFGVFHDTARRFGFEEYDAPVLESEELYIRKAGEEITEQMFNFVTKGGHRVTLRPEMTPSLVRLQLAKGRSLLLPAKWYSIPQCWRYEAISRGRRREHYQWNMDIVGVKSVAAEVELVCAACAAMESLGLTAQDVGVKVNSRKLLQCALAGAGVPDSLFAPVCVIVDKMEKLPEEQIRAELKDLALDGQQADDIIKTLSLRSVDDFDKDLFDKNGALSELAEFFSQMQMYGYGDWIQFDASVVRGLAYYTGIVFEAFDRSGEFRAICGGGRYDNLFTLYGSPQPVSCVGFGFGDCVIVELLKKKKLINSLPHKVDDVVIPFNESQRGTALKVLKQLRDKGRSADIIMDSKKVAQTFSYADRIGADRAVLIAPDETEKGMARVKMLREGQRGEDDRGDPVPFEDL
UniProt Q4DA54, 1-478: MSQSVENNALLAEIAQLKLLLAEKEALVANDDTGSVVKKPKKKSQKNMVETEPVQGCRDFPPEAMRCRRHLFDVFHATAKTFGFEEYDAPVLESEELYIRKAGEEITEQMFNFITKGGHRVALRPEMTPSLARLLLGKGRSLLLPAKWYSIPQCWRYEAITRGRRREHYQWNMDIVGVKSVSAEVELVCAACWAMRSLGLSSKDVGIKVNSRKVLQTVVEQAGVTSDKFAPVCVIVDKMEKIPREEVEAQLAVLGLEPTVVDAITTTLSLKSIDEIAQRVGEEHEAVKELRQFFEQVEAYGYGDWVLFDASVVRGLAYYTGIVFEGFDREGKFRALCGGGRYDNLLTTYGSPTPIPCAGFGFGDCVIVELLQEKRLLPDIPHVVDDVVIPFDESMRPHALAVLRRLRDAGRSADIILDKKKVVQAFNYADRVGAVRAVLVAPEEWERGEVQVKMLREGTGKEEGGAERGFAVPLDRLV

Measurements from “University of Dundee, Small-Polar-MMV Screening Library” (2021), ChEMBL document CHEMBL3988442.

Results are given as percent effect. The record does not define 0% and 100%; most values in the screen are far below 50% and negative numbers occur (in some assays of this library far below -100). This is an unselected part of the compounds tested. A dash means the value is not listed here; it may have been measured.

Pks13 thioesterase: 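Enzyme assay of the thioesterase domain of polyketide synthase 13; the read-out is not stated. Target: Polyketide synthase Pks13, Mycobacterium tuberculosis (UniProt I6X8D2). Compounds at 30 µM. The record gives no direction; the compounds picked for IC50 retests had high values, so higher reads as stronger inhibition. About 67,000 compounds were tested under these conditions; 0.46% (about 300) showed 50% or more at least once.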
Toxoplasma: 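Assay of Toxoplasma gondii numbers, read through their beta-galactosidase reporter with a colour substrate. Concentration: 10 µM. The record gives no direction; the compounds picked for IC50 retests had high values, so higher reads as fewer parasites. Size under these conditions: about 67,000 compounds, about 260 of them at 50% or above in at least one test.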
CoaBC: 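Enzyme assay of CoaBC with a phosphate dye (Biomol Green) read at 650 nm. Target: Coenzyme A biosynthesis protein CoaBC, Mycobacterium tuberculosis (UniProt P9WNZ1). Compounds at 30 µM. Higher reads as stronger inhibition, judged from the few compounds that gave an IC50. Most strong results did not repeat in a second test. Size under these conditions: about 67,000 compounds, about 40 of them at 50% or above in at least one test.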
MtTrpRS: 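Tryptophan-tRNA ligase, Mycobacterium tuberculosis (UniProt P9WFT3). Enzyme assay of tryptophanyl-tRNA synthetase; the read-out is not stated. Compounds at 10 µM. Direction is not recorded; retested compounds ran higher, which suggests that high means inhibition. Of about 65,000 compounds tested this way, about 64 (0.098%) reached 50% or more in at least one test.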
LiHisRS: 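Histidine-tRNA ligase, Leishmania infantum (UniProt A4I591). Enzyme assay of histidyl-tRNA synthetase; the read-out is not stated. Tested at 30 µM. Direction is inferred from retests: higher values go with stronger inhibition. The assay is labelled LdHisRS but filed under L. infantum. Size under these conditions: about 69,000 compounds, about 410 of them at 50% or above in at least one test.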
TcHisRS: 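Enzyme assay of histidyl-tRNA synthetase; the read-out is not stated. Target: Histidine-tRNA ligase, Trypanosoma cruzi CL Brener (UniProt Q4DA54). Compounds at 30 µM. The record gives no direction; compounds that gave an IC50 in retests scored well above the rest, so higher reads as stronger inhibition. About 69,000 compounds were tested under these conditions; 0.045% (about 31) showed 50% or more at least once.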

| # | compound | Pks13 thioesterase | Toxoplasma | CoaBC | MtTrpRS | LiHisRS | TcHisRS |
|---|---|---|---|---|---|---|---|
| 1 | `Nc1nccc(N2C[C@@H](CN3CCCCC3)[C@@H](CO)C2)n1` | -16.86 | 7.433 | -3.951 | -5.325 | 2.797 | 3.483 |
| 2 | `O=C(NCCc1ccsc1)c1ccoc1` | -12.07 | 0.2309 | -2.273 | -4.312 | 24.66 | 1.622 |
| 3 | `COCCNC(=O)[C@@H]1CN(c2ncccn2)C[C@H]2OCC[C@H]21` | -43.52 | - | 3.553 | -2.058 | 17.65 | 4.926 |
| 4 | `CCCS(=O)(=O)N1CC[C@@H]2[C@@H]1CC(=O)N2Cc1csc(C)n1` | -12.03 | - | 1.777 | -0.2945 | 24.47 | 15.08 |
| 5 | `Cc1nnc([C@@]23CCO[C@@H]2CCN(S(=O)(=O)c2cccnc2)C3)o1` | 6.067 | - | 0.9901 | - | 4.505 | 0 |
| 6 | `Cc1ncsc1-c1nnc(C2CCCN2C(=O)Cn2cccn2)o1` (centres unmarked) | 11.22 | 14.08 | -4.731 | -5.252 | 2.899 | 5.303 |
| 7 | `Cc1ncc(CNC(=O)Cc2ccsc2)c(C2CCCN2C)n1` (centres unmarked) | 15.18 | 4.221 | 2.179 | - | 16.49 | 5.556 |
| 8 | `O=C(O)C(F)(F)F.O=C(c1ccoc1)N1CCC2(CC1)COC(COc1ccccn1)C2` (centres unmarked) | - | 3.095 | - | - | - | - |
| 9 | `O=C(CN1C(=O)CCC1=O)N1CCC(CSCc2ccco2)CC1` | -16.88 | -17.04 | -4.622 | -2.916 | 11.11 | 3.333 |
| 10 | `NC(=O)c1ccc(NC(=O)c2ccncc2F)cn1` | 1.95 | 3.733 | 2.232 | 5.47 | 17.71 | -1.657 |
| 11 | `Fc1ccc(CN2C[C@@H](OCc3ccccn3)[C@H]3COC[C@H]32)cc1` | - | - | 3.457 | - | -19.09 | 8.466 |
| 12 | `Cc1nnsc1CN1C[C@H]2CC[C@@H]1CN(Cc1ccccc1)C2` | 0.2819 | - | 0 | 6.849 | 31.25 | 27.85 |
| 13 | `CCn1ccnc1CN1CCCC1Cn1cc(C)cn1` (centres unmarked) | -13.65 | 20.73 | -10.19 | -8.348 | 15.38 | 7.692 |
| 14 | `Cc1ccc(C)c(Oc2ccc(CNC(=O)C3CCS(=O)(=O)C3)cn2)c1` (centres unmarked) | 2.161 | 1.812 | 0 | 0.2349 | 16.13 | 6.186 |
| 15 | `Cc1ccccc1CNCC(O)c1ccc(OC(C)C)cc1` (centres unmarked) | -24.35 | -0.1763 | -16.7 | -3.469 | 20.59 | 5.82 |
| 16 | `CCN1CCN(Cc2c(-c3ccco3)[nH]c3ncccc23)CC1` | 10.36 | -25.08 | 2.184 | - | 4.348 | 5.495 |
| 17 | `Cc1csc2ncc(-c3ccnc(N4CCCC4)n3)c(=O)n12` | 136.6 | -6.894 | -1.566 | - | 14.29 | 19.21 |
| 18 | `O=C(O)C(F)(F)F.[H][C@@]12CN(C(=O)C3CCOC3)C[C@]1([H])C(=O)N(CCN(C)C)C2` (some centres unmarked) | - | 2.181 | - | - | - | - |
| 19 | `CCOc1ccc(OCc2nccc(-c3cc(C(=O)O)ccn3)n2)cc1` | -3.125 | 8.039 | 2.195 | 0.301 | 12.8 | 0 |
| 20 | `COc1c(C(=O)NC(C)CC(=O)c2cccs2)c(C)nn1C` (centres unmarked) | - | -12.01 | 3.398 | -1.296 | 0 | 0 |
| 21 | `Cc1nnc2n1CCN(Cc1csc(COc3ccccc3)n1)C2` | 12.51 | -17.4 | -12.5 | -7.729 | 12.5 | 2.326 |
| 22 | `Cc1ccccc1-c1noc(CN2CCc3cncnc3C2)n1` | -1.682 | -12.33 | 4.348 | -7.072 | -42.2 | 21.76 |
| 23 | `Cn1cnnc1C1CCN(C(=O)CCOc2ccc(Cl)cc2)CC1` | -22.65 | 9.941 | 4.773 | 64.24 | -1.786 | 2.305 |
| 24 | `Cn1ncc2c1CCCC2NCc1cccnc1` (centres unmarked) | 8.06 | 27.57 | 4.642 | 1.224 | 3.614 | 6.468 |
| 25 | `Cc1nn(C)c(N(C)C)c1CNCc1ccc(C(=O)N(C)C)cc1` | -17.67 | -20.53 | -10.19 | 3.123 | 18.8 | 5.983 |
| 26 | `COc1ccc(C(=O)O)c(OCC(=O)NC(C)c2ccc(F)cc2)c1` (centres unmarked) | -15.77 | 12.04 | 8.481 | 2.862 | 21.21 | 0 |
| 27 | `NC(=O)CNC(=O)c1ccc(CNCc2ccc(F)cc2F)cc1` | -27.66 | -8.352 | 1.01 | -0.2101 | 23.68 | 4.094 |
| 28 | `Cn1ccnc1CN1CCOC[C@H]1c1nc(C(C)(C)C)co1` | -11.24 | -5.974 | 8.448 | -2.06 | 16.22 | 5.473 |
| 29 | `CN(c1cccnn1)[C@@H]1CC[C@@H]2CN(Cc3cccc(C(=O)O)c3)C[C@@H]21` | 20.63 | - | 1.726 | -4.881 | 5.634 | 2.273 |
| 30 | `O=C(COCC1CC1)Nc1ncccc1O` | -14.55 | 18.37 | 1.648 | 1.852 | 31.65 | 8.19 |
| 31 | `CN(C)CC(=O)N1CCC2(CCN(Cc3cccc(F)c3)CC2)C1` | -26.99 | -7.729 | 7.079 | -0.2907 | 17.31 | 6.796 |
| 32 | `CN(CCNC(=O)Nc1ccncc1)C1CCCCC1` | -16.42 | 1.551 | 6.287 | -0.8607 | 26.19 | -2.256 |
| 33 | `CCCc1nc(N2CCSCC2)c2c(n1)c(C)nn2CC` | 6.133 | 4.433 | 1.119 | 2.692 | 12.64 | 9.278 |
| 34 | `Cc1cc2cc(CNC3CCN(CC4CCOC4)CC3)oc2cc1C` (centres unmarked) | -50.94 | 18.34 | - | 0.3096 | 25.71 | 7.792 |
| 35 | `CCN1CC2(CC1=O)CN(Cc1cnn(C)c1)CCN(C(=O)N(C)C)C2.O=C(O)C(F)(F)F` (centres unmarked) | - | -1.918 | - | - | - | - |
| 36 | `CC(C)CN1CCN(C(=O)c2cccnc2-n2cncn2)CC1` | 26.39 | 0 | -5.128 | 8.73 | -6.849 | 8.867 |
| 37 | `CCOCC(O)CN1CCN(C(=O)CC(C)C)CC1` (centres unmarked) | -0.2803 | 4.652 | 2.254 | -4.304 | 11.9 | 0 |
| 38 | `CCn1ncc2c1C(COC)CN(Cc1ccco1)C2` (centres unmarked) | -12.05 | 20.27 | -11.6 | -6.08 | 11.11 | 2.804 |
| 39 | `Cn1ccnc1CNC(=O)CCc1cccc(F)c1` | 8.674 | 15.8 | -1.914 | -5.859 | 10.07 | 5.747 |
| 40 | `O=C(Nc1nc(-c2ccccc2)ns1)N1CCC(F)CC1` | 6.228 | -0.6972 | 7.944 | -2.804 | 19.74 | 8.696 |
| 41 | `Cc1nn(C)c(=O)c2nn(-c3cccc(Cl)c3)c(C)c12` | -5.732 | 4.912 | 6.604 | 4.465 | 7.692 | 5.155 |
| 42 | `CNc1cncc(C2CCCN2Cc2ccn(C)n2)n1` (centres unmarked) | 19.58 | 10.66 | -0.7282 | - | 7.246 | 6.593 |
| 43 | `CN1CCc2onc(Cn3cccc3)c2C1.O=C(O)C(F)(F)F` | - | 0.7559 | - | - | - | - |
| 44 | `CCn1nc2c(cc1=O)CN(CC(=O)Nc1nnc(C)s1)CC2` | -12.98 | -28.1 | 0 | -2.611 | 7.692 | 1.143 |
| 45 | `Cc1cc(NC2CCc3ncnn3C2)n2nc(C(F)(F)F)nc2n1` (centres unmarked) | 5.09 | 3.482 | 3.201 | 3.856 | 12.35 | -0.6135 |
| 46 | `Cc1ccc(C(C)NC(=O)Cc2c(C)nc3cc(=O)[nH]n3c2C)s1` (centres unmarked) | -15.51 | -0.9541 | -3.099 | -2.601 | 19.18 | 6.349 |
| 47 | `CCCNC(=O)c1ccc(-c2ccco2)[nH]c1=O` | -9.427 | 3.076 | -15.73 | -7.588 | 18.42 | 8.38 |
| 48 | `CN1CC(=O)N(c2cccc(F)c2)CC12CCN(S(=O)(=O)C1CC1)C2` (centres unmarked) | -1.149 | - | -0.2538 | -2.716 | 23.53 | 7.882 |
| 49 | `CCCNC(=O)c1cccc(CNCc2csc(C(C)(C)C)n2)c1` | -7.084 | 14.25 | 3.457 | 0.2571 | 4.938 | 5.521 |
| 50 | `CC(C)c1nc(C2CCCN(C(=O)c3ccc4[nH]cnc4c3)C2)no1` (centres unmarked) | -20.27 | 0.7679 | 3.846 | -2.58 | 13.33 | -1.132 |
| 51 | `Cc1nc(N(C)C)nc(NCCc2c[nH]cn2)c1C` | -25.89 | 29.9 | -0.1653 | 0.5874 | 14.29 | 11 |
| 52 | `O=C(CCc1cc2n(n1)CCCN(Cc1ccccc1F)C2)NC1CC1` | -10.63 | -9.712 | -8.439 | -1.896 | 16.35 | 1.626 |
| 53 | `Cc1ccc(C(C(=O)N2CCN(C(=O)c3ccc[nH]3)CC2)N(C)C)cc1` (centres unmarked) | -28.04 | 9.774 | -12.96 | 2.385 | 8.219 | 5.464 |

The first 6 entries again:

Result for Nc1nccc(N2C[C@@H](CN3CCCCC3)[C@@H](CO)C2)n1 was Pks13 thioesterase: -16.86%; Toxoplasma: 7.433%; CoaBC: -3.951%; MtTrpRS: -5.325%; LiHisRS: 2.797%; TcHisRS: 3.483%.
Result for O=C(NCCc1ccsc1)c1ccoc1 was Pks13 thioesterase: -12.07%; Toxoplasma: 0.2309%; CoaBC: -2.273%; MtTrpRS: -4.312%; LiHisRS: 24.66%; TcHisRS: 1.622%.
Result for COCCNC(=O)[C@@H]1CN(c2ncccn2)C[C@H]2OCC[C@H]21 was Pks13 thioesterase: -43.52%; CoaBC: 3.553%; MtTrpRS: -2.058%; LiHisRS: 17.65%; TcHisRS: 4.926%.
Result for CCCS(=O)(=O)N1CC[C@@H]2[C@@H]1CC(=O)N2Cc1csc(C)n1 was Pks13 thioesterase: -12.03%; CoaBC: 1.777%; MtTrpRS: -0.2945%; LiHisRS: 24.47%; TcHisRS: 15.08%.
Result for Cc1nnc([C@@]23CCO[C@@H]2CCN(S(=O)(=O)c2cccnc2)C3)o1 was Pks13 thioesterase: 6.067%; CoaBC: 0.9901%; LiHisRS: 4.505%; TcHisRS: 0%.
Result for Cc1ncsc1-c1nnc(C2CCCN2C(=O)Cn2cccn2)o1 (centres unmarked) was Pks13 thioesterase: 11.22%; Toxoplasma: 14.08%; CoaBC: -4.731%; MtTrpRS: -5.252%; LiHisRS: 2.899%; TcHisRS: 5.303%.